# Primary screen of a compound library

Data taken from ChEMBL document CHEMBL3988442, “University of Dundee, Small-Polar-MMV Screening Library” (2021).

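Whole-cell assay for inhibitors of Mycobacterium tuberculosis growth, labelled Cornell in the record; the read-out is not stated. The concentration is filed as 10 mM, unlikely as a test dose, so the dose is not known. Higher means stronger inhibition (inferred from two other growth screens of the library). Of about 53,000 compounds tested this way, about 900 (1.7%) reached 50% or more in at least one test.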

Values are the deposited “Percent Effect”, in %.
The controls that fix the scale are not given in the record; negative values are as filed.
Compounds were drawn at random from those tested, without regard to their results.

| Compound | effect |
|---|---|
| `COc1cccc(NC(C(N)=O)c2ccc(Br)cc2)c1` (configuration not stated) | 43.3 |
| `O=C(O)CCC(=O)N1CCC(c2noc3cc(F)ccc23)CC1` | 14.27 |
| `COc1ccc(CNCC(O)c2cccc(O)c2)cc1Br` (configuration not stated) | 10.39 |
| `Cc1ncc(-c2ccnc(SCCN)n2)c(-c2ccco2)n1` | -37.7 |
| `O=C(NCC(Cc1cccc(F)c1)N1CCCC1=O)c1ccc[nH]c1=O` (configuration not stated) | 5.263 |
| `CN(C)C(C(=O)N1CCCN(C(=O)C2CCC2)CC1)c1ccccc1F` (configuration not stated) | 0.4525 |
| `NC(=O)C(CNC(=O)Cc1ccc(F)cc1)Cc1ccc(F)cc1` (configuration not stated) | 0.8789 |
| `CCOc1ccc2ccccc2c1CNCC1CCNCC1.Cl.Cl` | 1.837 |
| `Cc1cc(CN(C)C(=O)NCC(C)N2CCc3ccccc32)no1` (configuration not stated) | 10.01 |
| `O=C(OCC1CCN(c2ccccc2)C1)c1cscn1` (configuration not stated) | 16.37 |
| `COc1ccc(NC(=O)C2CCOC2)c(N2CCN(C(C)=O)CC2)n1` (configuration not stated) | 29.17 |
| `Cc1cc(Br)oc1C(=O)N1CCCN(CC(N)=O)CC1` | -10 |
| `O=C(c1ccncc1)N1CCn2c(nnc2-c2ccccc2)C1` | 20.9 |
| `CN(CCCc1n[nH]c(N)c1C#N)C(=O)Nc1cc(Cl)cc(Cl)c1` | 28.24 |
| `COc1cccc(OCC(=O)N2CCC3(CC2)[C@H](O)C[C@@H]3OC)c1` | -1.926 |
| `Cc1nccn1CCC1CCCCN1Cc1ccc2c(c1)OCCO2` (configuration not stated) | -21.65 |
| `COc1cc(C)nc(N2CCN(Cc3nccn3C)CC2)n1` | -0.8138 |
| `Cc1[nH]ncc1C(C)NCc1ccc(F)cc1` (configuration not stated) | 27.72 |
| `COCCN1CCC2(CCN(CC3CC3)CC2)C1=O.O=C(O)C(F)(F)F` | -6.985 |
| `Cc1[nH]c(=O)[nH]c(=O)c1CC(=O)N1CCCN(CC2CC2)C(C(C)C)C1` (configuration not stated) | 10.61 |
| `CC(=O)c1cccc(NC(=O)N(CC(F)F)C2CC2)c1` | -19.3 |
| `CC(C)Cn1cnnc1C1CCCN1C(=O)c1cc2ccccn2c1` (configuration not stated) | -41.21 |
| `O=C(O)C(F)(F)F.[H][C@]12CCC(=O)N(c3cccnc3)[C@@]1([H])CCN2C(=O)CC1CC1` | -7.713 |
| `Cc1ccc(CN(C)c2nccc(-c3cn(C)nc3C)n2)o1` | -13.23 |
| `O=C(CCc1ccccc1F)N1CCC(Nc2cccnn2)CC1` | -2.526 |
| `c1nc2c(c(NC3COC4(CCCC4)C3)n1)CCNCC2` (configuration not stated) | 4.632 |
| `CC(CN1CCOC1=O)NC(=O)c1cccc(Cl)c1Cl` (configuration not stated) | -23.52 |
| `COc1cc(C(=O)N2CCCC(n3ccnc3)C2)cc2c1OCCO2` (configuration not stated) | -47.05 |
| `COC(=O)c1ccc(S(=O)(=O)NCC(O)c2sccc2C)cc1` (configuration not stated) | 37.68 |
| `Cc1ccccc1N1CC2(CCN(Cc3nccn3C)C2)CC1=O.O=C(O)C(F)(F)F` (configuration not stated) | 7.725 |
| `CCS(=O)(=O)c1ccccc1N1CCC(NC(C)=O)CC1` | 0.8969 |
| `COC(=O)CCC(=O)NCc1cccnc1N1CCc2ccccc2C1` | 10.05 |
| `COc1cc(NC(=O)Cn2ccc3sc(C)cc3c2=O)cc(OC)c1` | 17.82 |
| `CCOCc1cnc2n1CCN(C(=O)c1cccc3c1OCCO3)C2C` (configuration not stated) | -10.91 |
| `O=C(NCC1CCOC1)N1CCN(Cc2ccc3c(c2)OCO3)CC1` (configuration not stated) | -12.11 |
| `CO[C@@H]1CC[C@@H](N(C)C(=O)c2cn3cc(C)ccc3n2)[C@H]1O` | -16.38 |
| `CCC(CC)CN(C)Cc1nc(-c2ccccc2NS(C)(=O)=O)oc1C` | -5.593 |
| `CCN(CC)C1COc2ccc(Br)cc2C1=O` (configuration not stated) | -10.12 |
| `Cc1[nH]c2c(C)cccc2c1CC(=O)N(C)CCN(C)C.O=C(O)CC(O)(CC(=O)O)C(=O)O` | 27.37 |
| `COc1cccc(CC2(C(=O)O)CCN(c3ccc(Cl)cn3)CC2)c1` | 36.04 |
| `COc1ccccc1C1CCN(c2ccc3cc[nH]c3n2)CC1` | 6.834 |
| `COc1ncc(C(=O)NCc2ccc(Br)cc2)cn1` | 25.41 |
| `O=C(O)C(F)(F)F.O=C(O)C(F)(F)F.[H][C@@]12C[C@@H](Oc3cccc(F)c3)CN1CCN(Cc1ccccn1)C2` | 1.936 |
| `Cc1ncsc1C(=O)N1CCCC1c1c(C)nn(C)c1C` (configuration not stated) | 12.83 |
| `Cc1cc(C)c2nc(CN[C@H]3CCCNC3)cc(O)c2c1` | 15.12 |
| `Cc1noc([C@@H]2CCCN2C(=O)C2CCN(C(=O)C3CCC3)CC2)n1` | -19.23 |
| `COc1nc2c(cc1C(=O)NCCc1nc3ccccc3s1)CCC2` | -37.42 |
| `Cc1cc(Nc2ccccn2)nc(C2CCCN(CCO)C2)n1.O=CO` (configuration not stated) | -9.314 |
| `CC(C)[C@H]1CN(CCCO)C[C@@H]1NC(=O)CCS(C)(=O)=O` | -18.3 |
| `CCc1nnc(Nc2cc(C)nc(C3CCN(c4ncccn4)C3)n2)s1` (configuration not stated) | -15.6 |
| `CN(C)c1ccc(C(=O)N2CCC(c3cc4cnccc4[nH]3)CC2)cc1` | 16.29 |
| `Cc1ccccc1C(=O)N1Cc2c(Cn3ccnc3)nn(C)c2C1.O=C(O)C(F)(F)F` | 15.05 |
| `Cc1cc(-c2cc(N)c(=O)n(CC(=O)NCC3CCCCC3)n2)c(C)o1` | -31.85 |
| `[H][C@]12CN(C)C(=O)[C@@]1([H])CN(C(=O)C1CC=CC1)C2` | -8.212 |
| `COc1cccc2c1OCC(C(=O)NCCc1nnc(N)s1)C2` (configuration not stated) | 19.59 |
| `CC(C)SCC(=O)N1CCCn2nc(C(=O)Nc3ccccc3)cc2C1` | -3.211 |
| `O=C(c1nnn(-c2ccc(C(F)(F)F)cc2)n1)N1CCC(O)CC1` | 42.24 |
| `CC(O)CN1CCN(C(=O)c2ccc3c(c2)COC3)CC1` (configuration not stated) | -5.949 |
| `Nc1nccnc1CC1CCCN(Cc2cccc3[nH]ccc23)C1` (configuration not stated) | 6.359 |
| `CCc1nonc1NC(=O)C(C)Oc1ccccc1F` (configuration not stated) | 21.98 |
| `O=C(c1[nH]nc(C2CC2)c1Cl)N1CCCC1` | 25.57 |
| `[H][C@@]12CS(=O)(=O)C[C@]1([H])N(Cc1ccc(CCC)o1)CCN2C(=O)C(C)C` | 27.99 |
| `[H][C@@]12CCN(C(=O)c3cccn3C)C[C@@]1([H])O[C@H](c1nc(C)cs1)C2` | -3.938 |
| `Cc1ccc(C(=O)NCCCn2cncn2)c(=O)[nH]1` | 7.521 |
| `O=C(c1cc2ccccc2c(=O)[nH]1)N1CCN(CCO)CC1` | -25.67 |
| `CC(C)n1cnc2c1C(C(=O)NCCC#N)N(Cc1ccccc1)CC2.O=C(O)C(F)(F)F` (configuration not stated) | 27.38 |
| `O=C(O)C(F)(F)F.[H][C@@]12CCN(c3cc(OC)ncn3)[C@]1([H])CC[C@H](C(=O)NC1CCCC1)O2` | 5.885 |

The first 7 entries again:

With COc1cccc(NC(C(N)=O)c2ccc(Br)cc2)c1 (configuration not stated) the screen gave 43.3%.
With O=C(O)CCC(=O)N1CCC(c2noc3cc(F)ccc23)CC1 the screen gave 14.27%.
With COc1ccc(CNCC(O)c2cccc(O)c2)cc1Br (configuration not stated) the screen gave 10.39%.
With Cc1ncc(-c2ccnc(SCCN)n2)c(-c2ccco2)n1 the screen gave -37.7%.
With O=C(NCC(Cc1cccc(F)c1)N1CCCC1=O)c1ccc[nH]c1=O (configuration not stated) the screen gave 5.263%.
With CN(C)C(C(=O)N1CCCN(C(=O)C2CCC2)CC1)c1ccccc1F (configuration not stated) the screen gave 0.4525%.
With NC(=O)C(CNC(=O)Cc1ccc(F)cc1)Cc1ccc(F)cc1 (configuration not stated) the screen gave 0.8789%.